In PubChem BioAssay AID2685 (National Center for Advancing Translational Sciences (NCATS), 2010) one finds cell number change and AC50 data, which are given here for 58 compounds.

The assay in a line: qHTS Assay for Lipid Storage Modulators in Drosophila S3 Cells.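 On cell number change: cells counted by Cell Tracker Red CMTPX staining in the red channel.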 The settings on record: BODIPY lipid droplet fluorescence, 18-24 h; for cell number change: measured here: cell count max response, cells fed with added oleic acid. The essentials:
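Drosophila S3 cells loaded with oleic acid (400 uM, as added) and compounds at several concentrations; lipid droplets imaged by 488-nm laser-scanning cytometry, 500–530 nm intensity and object ratio to cell channel. Percent activity normalized to 20 uM Triacsin C.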

[1] abbreviates: measured here: lipid fluorescence (Fed channel) AC50, cells fed with added oleic acid.
The mark [2] stands for this setting: measured here: cell number channel AC50, cells fed with added oleic acid.

The other results are listed elsewhere or left out. These are further read-outs of the screen, such as a control signal, another cell line or another target. No call is given for them. The list favours compounds with an active or inconclusive main result. Words in brackets tell the shape of the fitted curve; partial curves, single points and poor fits give uncertain potencies.

As for `Cc1ccc2c(c1)cc1c(=O)n(CC(=O)NCCCc3ccccc3)nc(C)n12`, the cell number change is -9.89%. Besides, the concentration at half-maximal activity (AC50) under setting [1] is 25.9 µM [rising, single point]. Consider `O=C1C=C(NCc2ccc(Cl)c(Cl)c2)CC1`, for which the cell number change was -144%. Moreover, the AC50 under setting [2] is 23.1 µM [falling, partial curve]. Further, the AC50 under setting [1] is 0.58 µM [falling, full curve]. Turning to `COc1ccc(CCC(=O)N2CCc3ccccc32)cc1`, the cell number change is -12.2%. Also, the concentration at half-maximal activity (AC50) under setting [2] was 6.51 µM [falling, single point]. In addition, the AC50 under setting [1] is 0.146 µM [falling, full curve]. Turning to `CN1CCN(c2ccccc2NC(=O)c2cccs2)CC1`, the cell number change turned out to be 2.35%.

For the compound `O=C(Cc1ccccc1)c1c[nH]c(C(=O)NC2CCCC2)c1`, the cell number change is -10.8%.

Turning to `COc1ccc(CCNCc2cc3ccc(C)cc3[nH]c2=O)cc1OC`, the cell number change stood at 2.13%. As for `COc1ccc(N2CSC3=C(C#N)C(c4cc(OC)c(OC)cc4OC)CC(=O)N3C2)c(OC)c1` (centres undefined), the cell number change stood at 37.3%. In addition, under setting [2], the half-maximal activity concentration (AC50) is 2.91 µM [rising, full curve]. In addition, the concentration at half-maximal activity (AC50) under setting [1] was 2.31 µM [rising, full curve]. `CCN(CC)CCOC(=O)c1c(C)oc2ccc(OC)cc12`: the cell number change is -2.65%. Further, the concentration at half-maximal activity (AC50) under setting [1] is 2.59 µM [falling, partial curve, poor fit]. With `COC(=O)c1cc(Br)ccc1NC(=O)CSCc1c(C)noc1C`, the cell number change was -29.7%. For the same compound, the concentration at half-maximal activity (AC50) under setting [2] was 3.66 µM [falling, full curve, poor fit]. The AC50 under setting [1] was 14.6 µM [falling, partial curve].

As for `Cc1ccc(S(=O)(=O)Nc2nc(N)n(-c3ccccc3)n2)cc1`, the cell number change was 5.81%. On the same count and under the same terms, as for `Cc1cc(=O)n2nc(N3CCCC3C(=O)Nc3cccc(F)c3)sc2n1` (centres undefined), the figure is 6.63%. In the case of `N#CC1=C2SCN(c3ccccc3)CN2C(=O)CC1c1c(Cl)cccc1Cl` (centres undefined), the cell number change was -32.3%. Also, the AC50 under setting [2] was 23.1 µM [falling, partial curve, poor fit]. For the same compound, the concentration at half-maximal activity (AC50) under setting [1] is 3.66 µM [rising, partial curve, poor fit].

As to `CN(C)CCCN(C(=O)c1cc2cc([N+](=O)[O-])ccc2s1)c1nc2cc3c(cc2s1)OCCO3`, the cell number change was -88.7%. In addition, under setting [2], the AC50 is 20.6 µM [falling, partial curve]. Further, the AC50 under setting [1] was 20.6 µM [falling, partial curve, poor fit].

As to `CC(OC(=O)CCCc1nc2ccccc2s1)C(=O)NC(N)=O` (centres undefined), the cell number change was -28%. Also, the AC50 under setting [1] is 25.9 µM [falling, single point].

Regarding `CC(C)n1cnc2c(Nc3ccc(F)c(Cl)c3)nc(NCCO)nc21`, the cell number change is -35.3%. In addition, the AC50 under setting [1] is 29.1 µM [falling, single point]. `C/C(=N/NC(=O)CNC(=O)CCc1ccccc1)c1ccc(Cl)cc1`: the AC50 under setting [1] is 0.058 µM [rising, full curve, poor fit]. As to `CC(C)c1ccc(NC(=O)C(=O)C2C(=O)Nc3ccccc32)cc1` (centres undefined), the cell number change stood at 8.27%. `CCCCn1c(N)c(N(CC(C)C)C(=O)C2=NN(c3ccccc3)C(=O)CC2)c(=O)[nH]c1=O`: the cell number change was -6.09%. Further, the AC50 under setting [1] is 6.51 µM [rising, single point].

In the case of `CCCn1nc(C(=O)N(C)CC(=O)Nc2ccc(OCC)c(OCC)c2)c2ccccc2c1=O`, the cell number change was -6.09%. In the case of `CN(C(=O)c1ccc(NC(=O)Cc2ccc(NC(=O)C3CCN(C(=O)c4ccccc4)CC3)cc2)cc1)C1CC1`, the cell number change worked out at 8.73%. The AC50 under setting [2] was 0.82 µM [falling, single point]. Also, the half-maximal activity concentration (AC50) under setting [1] was 1.16 µM [falling, single point].

As for `O=C(c1ccccc1)c1ccc(-n2ccnc2)c([N+](=O)[O-])c1`, the cell number change was 23.8%. Besides, the AC50 under setting [1] is 0.116 µM [rising, full curve, poor fit]. For the compound `COc1cc(NS(=O)(=O)c2ccc(NC(=S)NC(=O)c3ccc(F)c(F)c3)cc2)nc(OC)n1`, under setting [1], the concentration at half-maximal activity (AC50) is 6.51 µM [rising, partial curve]. Consider `CCOC(=O)C1CN(S(=O)(=O)c2ccc(C)cc2)C1`, for which the cell number change is -32.4%. Besides, under setting [2], the AC50 was 1.3 µM [falling, full curve]. Moreover, the AC50 under setting [1] was 1.3 µM [falling, full curve]. In the case of `O=C(Oc1ccccc1Cl)C1CCN(C(=O)c2ccc(F)cc2)CC1`, the cell number change was -99.4%. Also, the AC50 under setting [2] is 29.1 µM [falling, single point]. The AC50 under setting [1] was 6.51 µM [falling, partial curve, poor fit].

For the compound `COc1ccccc1OCC(=O)N1CCN(C(=O)c2ccco2)CC1`, the cell number change was -1.16%. In addition, the concentration at half-maximal activity (AC50) under setting [1] is 1.84 µM [rising, partial curve]. As for `CCN(CC)CCCCNc1ncc2cc(-c3cc(OC)cc(OC)c3)c(NC(=O)NC(C)(C)C)nc2n1`, the cell number change is -25.9%. Under setting [1], the AC50 is 0.00461 µM [falling, full curve, poor fit].

On to `CC(C)NC(=O)c1cc(-n2cnnc2)ccc1Cl`, for which the AC50 under setting [1] was 20.6 µM [falling, partial curve].

`CSCCC(NC(=O)COc1ccccc1)C(=O)NC1CCC(C)CC1` (centres undefined): the cell number change was 38.6%. In addition, the AC50 under setting [2] is 29.1 µM [rising, single point].

Regarding `O=C(Nc1cccc(Cl)c1Cl)C1CC(=O)N(c2ccc(Br)cc2)C1` (centres undefined), the cell number change is -52.1%. In addition, under setting [2], the AC50 is 29.1 µM [falling, single point]. In addition, the AC50 under setting [1] was 20.6 µM [falling, single point].

With `CCC(=O)c1ccc(N2CCN(C(=O)c3ccccc3Br)CC2)c(F)c1`, the concentration at half-maximal activity (AC50) by setting is: under setting [2], 2.06 µM [falling, partial curve]; under setting [1], 0.731 µM [falling, partial curve]. On to `CC1CCCCN1C(=S)NC(=O)c1ccccc1` (centres undefined), for which the cell number change came out at 6.65%. Consider `CCOc1ccc(Cl)cc1S(=O)(=O)NC1CCCC1`, for which the cell number change is -5.66%. Moreover, the AC50 under setting [1] was 11.6 µM [falling, partial curve]. Regarding `CCC(=O)N1CCc2cc(S(=O)(=O)N(C)c3ccc(Br)cc3)ccc21`, the cell number change was -9.72%. Under setting [1], the AC50 is 0.651 µM [rising, partial curve, poor fit]. Take `Cc1c(C)n(CCCN(C)C)c2ncnc(NC3CCCCC3)c12`: the cell number change turned out to be 18.3%. For the same compound, the AC50 under setting [1] was 6.51 µM [rising, single point].

For the compound `O=C(C1CCN(S(=O)(=O)c2cccc3cccnc23)CC1)N1CCCCC1`, the cell number change was found to be 29.4%. Moreover, the AC50 under setting [1] is 6.51 µM [falling, single point]. Regarding `Cc1cccnc1NC(=O)CNC(=O)c1cccs1`, the cell number change was -6.15%. In addition, the concentration at half-maximal activity (AC50) under setting [1] was 5.8 µM [falling, partial curve].

For the compound `CN(c1ccccc1)c1nc(N)c([N+](=O)[O-])c(NCc2ccco2)n1`, the cell number change is 27.8%. In addition, the AC50 under setting [1] is 18.4 µM [rising, single point]. Consider `O=C(Nc1cccc(S(=O)(=O)N2CCCCC2)c1)c1ccc2ncsc2c1`, for which the cell number change was 22.5%. The AC50 under setting [2] is 1.84 µM [rising, partial curve]. The AC50 under setting [1] is 1.16 µM [rising, full curve].

`Cc1ccc(S(=O)(=O)NC2=NCN(C)CN2)cc1[N+](=O)[O-]`: the AC50 under setting [1] was 29.1 µM [rising, single point]. For the compound `CCOc1cc(/C=N/NC(=O)COc2ccc(Cl)cc2)ccc1OS(=O)(=O)c1ccccc1`, the cell number change was -77.1%. Under setting [2], the AC50 was 16.4 µM [falling, partial curve]. As for `CCSC1=C(C#N)C(=O)n2c1cc1c2CCCC1`, the cell number change was -25.3%. Besides, the concentration at half-maximal activity (AC50) under setting [2] was 0.116 µM [falling, full curve, poor fit].

With `[O-]/[N+](=C/c1ccco1)c1ccccc1`, the cell number change worked out at 2.47%. For the same compound, the half-maximal activity concentration (AC50) under setting [1] was 20.6 µM [rising, partial curve]. For `Cc1c2ccccc2c(C)c2c1ccc1ccccc12`, the cell number change stood at 39.5%. The AC50 under setting [2] is 0.411 µM [rising, full curve]. Also, the half-maximal activity concentration (AC50) under setting [1] was 2.06 µM [rising, full curve]. In the case of `CC(=O)C12OC1CC1C3CCC4=CC(=O)CCC4(C)C3CCC12C` (centres undefined), the cell number change is 25.4%. Moreover, under setting [1], the AC50 was 0.259 µM [rising, full curve, poor fit]. `COc1ccc(-n2c(SCC(=O)c3ccc[nH]3)nnc2-c2ccccc2)cc1`: the cell number change is 23.9%. The half-maximal activity concentration (AC50) under setting [1] was 5.17 µM [rising, single point]. Consider `CCCCC1CCC(C(=O)N(C)CC(=O)Nc2cccc(F)c2)CC1` (centres undefined), for which, under setting [1], the AC50 was 0.82 µM [falling, partial curve, poor fit]. On to `CC(=O)Cc1nsc(NC(=O)c2cn(-c3ccccc3)nc2-c2ccc(Br)cc2)n1`, for which the cell number change was -5.47%. Also, the half-maximal activity concentration (AC50) under setting [1] was 0.82 µM [rising, partial curve, poor fit].

As for `CC(C)C[C@H](NC(=O)OC(C)(C)C)C(=O)NCC1CCC(C(=O)N[C@@H](Cc2ccccc2)C(=O)O)CC1` (some centres undefined), the cell number change was 6.94%. Also, under setting [1], the half-maximal activity concentration (AC50) was 29.1 µM [rising, single point]. As to `O=C(O)CCC(=O)N(Cc1cccs1)Cc1cccs1`, the cell number change was -26.9%. Besides, the AC50 under setting [2] was 0.231 µM [falling, full curve]. Under setting [1], the AC50 was 1.3 µM [falling, full curve]. Consider `CC(C)(C)c1ccc(S(=O)(=O)N2CCN(Cc3cc4c(cc3O)OCO4)CC2)cc1`, for which the cell number change is -35.8%. Moreover, the AC50 under setting [2] is 29.1 µM [falling, single point]. Further, the AC50 under setting [1] was 6.51 µM [rising, single point].

Consider `CC1CCN(CC(C)CNC(=O)c2cc(-c3ccccn3)nc3ccccc23)CC1` (centres undefined), for which the cell number change turned out to be 19.4%. Moreover, under setting [1], the concentration at half-maximal activity (AC50) is 20.6 µM [rising, single point]. `COc1ccc(-c2nn(-c3ccccc3C)cc2CNC(C)c2cn(C)nc2C)cc1F` (centres undefined): the cell number change is 7.75%. In the case of `CCc1ccccc1N(CC(=O)N1CCCC1)S(C)(=O)=O`, the cell number change was -4.72%. Besides, the AC50 under setting [1] is 0.0326 µM [falling, full curve, poor fit]. With `O=C(C[n+]1cc(Br)cc2ccccc21)c1ccc(Br)cc1`, the cell number change was -47.3%. Moreover, the half-maximal activity concentration (AC50) under setting [1] is 29.1 µM [falling, single point]. As to `CC1CC(=O)C2=C(C1)OC(N)=C(C#N)C2c1coc2ccccc2c1=O` (centres undefined), the AC50 under setting [2] was 2.91 µM [rising, partial curve]. For the compound `CCOc1cc(Br)c(CN2C(=O)NC3(CCCCCC3)C2=O)cc1OCC`, the AC50 under setting [1] is 0.13 µM [rising, partial curve]. `O=C(O)c1ccccc1-c1ccccc1C(=O)NCc1ccco1`: the cell number change is -21.8%. The AC50 under setting [1] was 23.1 µM [falling, partial curve]. With `CCNS(=O)(=O)c1ccc(CCC(=O)N2CCN(Cc3ccccc3)CC2)cc1`, the cell number change is -16.8%. Moreover, the concentration at half-maximal activity (AC50) under setting [1] is 0.731 µM [rising, single point].

In general, AC50 refers to the midpoint of the concentration-response curve, whichever way the signal moves. Higher therefore signals activity only at high concentration.
